From PMC9558048
Residue numbers refer to the chain shown, from its start. Numbers in names are those of the source. No constants are given. Whether binding was seen depends on the method and setting. Binding seen in cells or lysates may run through a third protein. Some binding calls cover weakened binding; strength is not graded here. Tags and fused reporters may be left off the sequences shown. One block for each binder: values may come before it.

What was measured:
[1] = biological target: T1, MBP-Isc10^111-267 (S. cerevisiae) (UniProt P32645); test: pull-down; amylose beads bound to MBP-Isc10^111-267 incubated with extracts from bacteria expressing ICK; beads washed, bound fraction analysed with an ICK antiserum; only the target purified
T1 sequence: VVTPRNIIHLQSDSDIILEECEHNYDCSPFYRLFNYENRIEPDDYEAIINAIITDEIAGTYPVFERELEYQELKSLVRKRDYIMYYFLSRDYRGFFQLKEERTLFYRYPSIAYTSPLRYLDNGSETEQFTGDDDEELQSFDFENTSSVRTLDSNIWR

[2] = biological target: T2, MBP-Isc10 (full-length Isc10, 1-267) (S. cerevisiae) (UniProt P32645); test: pull-down; ICK kinase domain (1-300) coexpressed with MBP-Isc10 in bacteria; fraction bound to amylose beads analysed with an ICK antiserum
T2 sequence: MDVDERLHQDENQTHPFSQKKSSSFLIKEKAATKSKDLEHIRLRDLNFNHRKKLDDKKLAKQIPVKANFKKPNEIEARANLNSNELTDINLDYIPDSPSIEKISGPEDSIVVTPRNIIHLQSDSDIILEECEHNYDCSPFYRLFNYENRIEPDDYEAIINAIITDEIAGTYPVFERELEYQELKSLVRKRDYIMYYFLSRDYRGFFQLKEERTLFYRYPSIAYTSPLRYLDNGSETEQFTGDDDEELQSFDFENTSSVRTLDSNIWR

[3] = biological target: T3, Ssp2^KAD-T199A-GST (S. cerevisiae) (UniProt Q08646); test: pull-down; Smk1-as1 coexpressed with Ssp2^KAD-GST (or its T199A form) and Cak1 in E. coli BL-21 DE3; complex purified from the extract on glutathione agarose beads, eluted with 20 mM reduced glutathione; kinase activity found in the eluate
T3 sequence: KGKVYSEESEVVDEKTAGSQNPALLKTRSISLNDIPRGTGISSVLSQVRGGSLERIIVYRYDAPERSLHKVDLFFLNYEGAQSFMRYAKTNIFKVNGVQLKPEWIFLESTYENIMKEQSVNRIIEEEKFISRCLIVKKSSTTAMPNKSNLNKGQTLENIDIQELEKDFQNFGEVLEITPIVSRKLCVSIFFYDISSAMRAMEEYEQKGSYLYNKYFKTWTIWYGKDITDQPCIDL

[4] = biological target: T4, Ssp2^KAD-GST (Ssp2 residues 137-371 fused to glutathione-S-transferase) (S. cerevisiae) (UniProt Q08646); test: as above
T4 sequence: T3 sequence with A63T

binding [1]: binds | binding [2]: binds
B1: kinase domain of intestinal cell kinase ICK (residues 1-300) (domain or fragment, UniProt Q9UPZ9 1-300)
chain: MNRYTTIRQLGDGTYGSVLLGRSIESGELIAIKKMKRKFYSWEECMNLREVKSLKKLNHANVVKLKEVIRENDHLYFIFEYMKENLYQLIKERNKLFPESAIRNIMYQILQGLAFIHKHGFFHRDLKPENLLCMGPELVKIADFGLAREIRSKPPYTDYVSTRWYRAPEVLLRSTNYSSPIDVWAVGCIMAEVYTLRPLFPGASEIDTIFKICQVLGTPKKTDWPEGYQLSSAMNFRWPQCVPNNLKTLIPNASSEAVQLLRDMLQWDPKKRPTASQALRYPYFQVGHPLGSTTQNLQDS

binding [3]: binds | binding [4]: binds
B2: Smk1-as1 (Smk1 Q121A, analog-sensitive) (enzyme, UniProt P41808 1-388)
chain: MNCTLTDNTRAINVASNLGAPQQRTIFAKERISIPGYYEIIQFLGKGAYGTVCSVKFKGRSPAARIAVKKISNIFNKEILLKRAIRELKFMNFFKGHKNIVNLIDLEIVTSSPYDGLYCYAELIDYDLAKVIHSSVQLSEFHIKYFLYQILCGLKYIHSADVIHRDLKPGNILCTLNGCLKICDFGLARGIHAGFFKCHSTVQPHITNYVATRWYRAPELLLSNQPYSKSVDIWAVGCILAEFYARKPVFMGRDSMHQIFEIIKVLGTPDKDILIKFGTIKAWNLGKNSNNPVYKKIPWSNIFPFASHEAINLIESLLHWDSTHRLNVEQAISHPFLNEVRKPDDEPVCLQGPFDFTYESELNSMSKLRDYLVEEVKNFKTDLSSSSL
